Data taken from the supplement of paper PMC4749390.
Where a name gives a salt, the structure may show the parent alone. The list shows a part of the results. Repeats in this data set agree poorly, so a single value says little.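 JEG3 cells stably carry tetracycline-induced wild-type human LRH-1, a heavily sumoylated nuclear receptor. APOC3 and MUC1 are SUMO-sensitive transcripts, raised by SUMO-less LRH-1 or UBC9 knockdown, measured by RT-qPCR against TBP and DMSO controls. A robust Z-score above +2 or below -2 marked a primary hit before toxicity and TBP filtering.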

Tested on: JEG3 expressing hLRH-1
Test: MUC1 transcript change (ddCt vs TBP and DMSO), Z-score over library; higher = higher MUC1 expression
Settings: 10 µM; time (hr): 24

Question: Which “MUC1 transcript change (Z-score)” value does the source give for `CC(=O)O[C@H]1C[C@@H]2CC[C@@H]3[C@H](CC[C@@]4(C)[C@H]3C[C@H]([N+]3(C)CCCCC3)[C@@H]4OC(C)=O)[C@@]2(C)C[C@@H]1[N+]1(C)CCCCC1` [pancuronium bromide] here?
Answer: 0.0667

Question: Which “MUC1 transcript change (Z-score)” value does the source give for `O=C(N/N=C/c1ccc([N+](=O)[O-])o1)c1cc([N+](=O)[O-])cc([N+](=O)[O-])c1O` [nifursol] here?
Answer: -0.85

Question: `C=CCN1CC[C@]23c4c5ccc(O)c4O[C@H]2C(=O)CC[C@@]3(O)[C@H]1C5` [naloxone hydrochloride] was tested. Which “MUC1 transcript change (Z-score)” value did it give?
Answer: -0.109

Question: How did the “MUC1 transcript change (Z-score)” value turn out when `O=C(NC(=O)c1c(F)cccc1F)Nc1cc(Cl)c(OC(F)(F)C(F)C(F)(F)F)cc1Cl` (stereo not given) [lufenuron] was run?
Answer: -0.349

Question: Which “MUC1 transcript change (Z-score)” value does the source give for `CO[C@]12C[C@@H](COC(=O)c3cncc(Br)c3)CN(C)[C@@H]1Cc1cn(C)c3cccc2c13` [nicergoline] here?
Answer: 0.32

Question: `CC[C@@]1(C2O[C@@H](C3O[C@@](O)(CC)[C@H](C)C[C@@H]3C)C[C@@H]2C)CC[C@H]([C@]2(C)CCC3(C[C@H](O)[C@@H](C)[C@@H]([C@H](C)[C@@H](OC)[C@H](C)C(=O)O)O3)O2)O1` (stereo not given in full) [monensin sodium (monensin a is shown)] was tested. Which “MUC1 transcript change (Z-score)” value did it give?
Answer: 0.81

Question: For `COP(=O)(OC)C(O)C(Cl)(Cl)Cl` (stereo not given) [trichlorfon], which “MUC1 transcript change (Z-score)” value is on record?
Answer: 0.593

Question: For `CN(C)C(=O)Oc1cc(OC(=O)N(C)C)cc(C(O)CNC(C)(C)C)c1` (stereo not given) [bambuterol hydrochloride], which “MUC1 transcript change (Z-score)” value is on record?
Answer: -0.926

Question: With `CN(C)C(=O)Oc1cccc([N+](C)(C)C)c1` [Neostigmine bromide] as the compound, how does the “MUC1 transcript change (Z-score)” value read?
Answer: 1.01

Question: For `COP(=O)(OC)OC=C(Cl)Cl` [dichlorvos], which “MUC1 transcript change (Z-score)” value is on record?
Answer: -0.138

Question: How did the “MUC1 transcript change (Z-score)” value turn out when `S=C=NCc1ccccc1` [benzyl isothiocyanate] was run?
Answer: 0.73

Question: With `CCC(C)[C@H]1O[C@]2(C=C[C@@H]1C)C[C@@H]1C[C@@H](C/C=C(\C)[C@@H](OC3C[C@H](OC)C(O[C@H]4C[C@H](OC)[C@@H](O)[C@H](C)O4)[C@H](C)O3)[C@@H](C)/C=C/C=C3\CO[C@@H]4[C@H](O)C(C)=C[C@@H](C(=O)O1)[C@]34O)O2` (stereo not given in full) [avermectin b1] as the compound, how does the “MUC1 transcript change (Z-score)” value read?
Answer: 0.457

Question: How did the “MUC1 transcript change (Z-score)” value turn out when `O=c1[nH]c(=O)n(Cl)c(=O)n1Cl` [troclosene potassium] was run?
Answer: -0.189

Question: `CCCC(C)(COC(N)=O)COC(=O)NC(C)C` (stereo not given) [Carisoprodol] was tested. Which “MUC1 transcript change (Z-score)” value did it give?
Answer: 0.751

Question: Which “MUC1 transcript change (Z-score)” value does the source give for `CN1C2CC[C@@H]1C[C@@H](OC(=O)[C@H](CO)c1ccccc1)C2` [hyoscyamine] here?
Answer: -0.575

Question: Which “MUC1 transcript change (Z-score)” value does the source give for `CN(C)[C@@H]1C(=O)C(C(N)=O)=C(O)[C@@]2(O)C(O)=C3C(=O)c4c(O)cccc4[C@@](C)(O)[C@H]3[C@H](O)[C@@H]12` [oxytetracycline] here?
Answer: 0.691

Question: Which “MUC1 transcript change (Z-score)” value does the source give for `CN1CCN(C(=O)O[C@H]2c3nccnc3C(=O)N2c2ccc(Cl)cn2)CC1` [eszopiclone] here?
Answer: 1.35

Question: Which “MUC1 transcript change (Z-score)” value does the source give for `NC(=O)C[S@@](=O)C(c1ccccc1)c1ccccc1` [armodafinil] here?
Answer: -0.00878

Question: For `CN(C)[C@@H]1C(=O)C(C(N)=O)=C(O)[C@@]2(O)C(O)=C3C(=O)c4c(O)ccc(Cl)c4[C@@](C)(O)[C@H]3C[C@@H]12` [chlortetracycline], which “MUC1 transcript change (Z-score)” value is on record?
Answer: 0.773

Question: Which “MUC1 transcript change (Z-score)” value does the source give for `CCC1(c2ccc(N)cc2)CCC(=O)NC1=O` (racemic) [(±)-p-Aminoglutethimide] here?
Answer: 0.648

Question: Which “MUC1 transcript change (Z-score)” value does the source give for `NCC(CC(=O)O)c1ccc(Cl)cc1` (racemic) [(±)-Baclofen] here?
Answer: 0.512

Question: With `CC(C)CC(N(C)C)C1(c2ccc(Cl)cc2)CCC1` (stereo not given) [sibutramine hydrochloride] as the compound, how does the “MUC1 transcript change (Z-score)” value read?
Answer: 0.638

Question: With `CC(C)[N+](C)(CCC(C(N)=O)(c1ccccc1)c1ccccc1)C(C)C` [isopropamide iodide] as the compound, how does the “MUC1 transcript change (Z-score)” value read?
Answer: -0.0216

Question: Which “MUC1 transcript change (Z-score)” value does the source give for `O=C1CC[C@@]2(O)[C@H]3Cc4ccc(O)c5c4[C@@]2(CCN3CC2CC2)[C@H]1O5` [naltrexone hydrochloride] here?
Answer: -0.0823

Question: How did the “MUC1 transcript change (Z-score)” value turn out when `CCOC(=O)CC(SP(=S)(OC)OC)C(=O)OCC` (stereo not given) [malathion] was run?
Answer: 0.33

Question: How did the “MUC1 transcript change (Z-score)” value turn out when `CN(C)[C@@H]1C(=O)C(C(N)=O)=C(O)[C@@]2(O)C(O)=C3C(=O)c4c(O)cccc4[C@@](C)(O)[C@H]3C[C@@H]12` [tetracycline hydrochloride] was run?
Answer: -0.41

Question: Which “MUC1 transcript change (Z-score)” value does the source give for `CCCN1C[C@H](CSC)C[C@@H]2c3cccc4[nH]cc(c34)C[C@H]21` [Pergolide methanesulfonate] here?
Answer: 0.601

Question: For `CC(N)Cc1ccc(O)cc1` (stereo not given) [hydroxyamphetamine hydrobromide], which “MUC1 transcript change (Z-score)” value is on record?
Answer: -1.41

Question: `CC(NC(C)(C)C)C(=O)c1cccc(Cl)c1` (stereo not given) [Bupropion hydrochloride] was tested. Which “MUC1 transcript change (Z-score)” value did it give?
Answer: 0.269

Question: For `NCc1cccnc1` [picolamine], which “MUC1 transcript change (Z-score)” value is on record?
Answer: 0.193

Question: How did the “MUC1 transcript change (Z-score)” value turn out when `NC1C[C@H]1c1ccccc1` (stereo not given in full) [tranylcypromine sulfate] was run?
Answer: 1.24

Question: How did the “MUC1 transcript change (Z-score)” value turn out when `O=P1(N(CCCl)CCCl)NCCCO1` (stereo not given) [cyclophosphamide hydrate] was run?
Answer: -0.163

Question: Which “MUC1 transcript change (Z-score)” value does the source give for `CCCCOC(=O)c1ccccc1C(=O)OCCCC` [dibutyl phthalate] here?
Answer: -0.935

Question: `N#Cc1nn(-c2c(Cl)cc(C(F)(F)F)cc2Cl)c(N)c1S(=O)C(F)(F)F` (stereo not given) [fipronil] was tested. Which “MUC1 transcript change (Z-score)” value did it give?
Answer: 0.415

Question: With `O=c1cccc2n1C[C@@H]1CNC[C@H]2C1` [cytisine] as the compound, how does the “MUC1 transcript change (Z-score)” value read?
Answer: -0.416

Question: With `Cl[C@H]1[C@H](Cl)[C@@H](Cl)[C@@H](Cl)[C@H](Cl)[C@H]1Cl` [lindane] as the compound, how does the “MUC1 transcript change (Z-score)” value read?
Answer: -3.65

Question: With `CCOP(=S)(OCC)Oc1ccc2c(C)c(Cl)c(=O)oc2c1` [coumophos] as the compound, how does the “MUC1 transcript change (Z-score)” value read?
Answer: -0.787

Question: `C#CC(C)(O)CC` (stereo not given) [meparfylon] was tested. Which “MUC1 transcript change (Z-score)” value did it give?
Answer: 0.328

Question: How did the “MUC1 transcript change (Z-score)” value turn out when `Cc1ccc(-c2nc3ccc(C)cn3c2CC(=O)N(C)C)cc1` [zolpidem] was run?
Answer: -0.815

Question: How did the “MUC1 transcript change (Z-score)” value turn out when `CCCC(C)C1(CC)C(=O)N=C(S)NC1=O` (stereo not given) [thiopental sodium] was run?
Answer: 0.412

Question: `COC(C)(C)CCC[C@H](C)C/C=C/C(C)=C/C(=O)OC(C)C` [methoprene (s)] was tested. Which “MUC1 transcript change (Z-score)” value did it give?
Answer: 0.935

Question: `O=[N+]([O-])c1cc([As](=O)(O)O)ccc1O` [roxarsone] was tested. Which “MUC1 transcript change (Z-score)” value did it give?
Answer: 0.2

Question: `CC(C)c1cccc(C(C)C)c1O` [Propofol] was tested. Which “MUC1 transcript change (Z-score)” value did it give?
Answer: 0.491

Question: How did the “MUC1 transcript change (Z-score)” value turn out when `Oc1ccc2c3c1O[C@H]1[C@@H](O)CC[C@@]4(O)[C@@H](C2)N(CC2CCC2)CC[C@]314` [nalbuphine hydrochloride] was run?
Answer: 0.199

Question: With `CC1(C)C(C=C(Cl)Cl)C1C(=O)OC(C#N)c1cccc(Oc2ccccc2)c1` (stereo not given) [cypermethrin] as the compound, how does the “MUC1 transcript change (Z-score)” value read?
Answer: 0.539
